From PMC9223101, “Transcription Regulation of Cell Cycle Regulatory Genes Mediated by NtrX to Affect Sinorhizobium meliloti Cell Division” come the findings set out here.

For at least one entry, the source does not settle the construct or the ends of the probe.

This data set deals with NtrX, phosphorylated (His-NtrX~P) (Sinorhizobium meliloti 1021) (UniProt Q92Q87). As to the kind of experiment: EMSA. As to conditions: acetyl phosphate-treated NtrX, 5 mM Mg2+, 20 uL: 3, 6, 15 ng NtrX, 2 nM probe (2 or 40 nM in Methods), 1x binding buffer, 5 mM MgCl2, 50 ng/uL poly(dI-dC), 0.05% NP-40, 1% glycerol, 30 min at 28 C, recombinant protein, protein details: His (pET28b), label: biotin.

Consider “CCAGCTAAGCAAGAACGCAAAAAACAAAACCCTTGATTCAACAGGGATTCTCGCCGGACTCGGGGAGCGGGATGC (double strand) [dnaA promoter probe (PdnaA)]”, for which, where the note is “one complex”, the binding result is reported as “binds”. Take “GATTTTTTCGCGCTTCGGAATCGGTATCCGCAAAGCGCCTGCAAACCTTGGTTTTGTTGACATCGC (double strand) [gcrA promoter probe]”: the binding result was “binds”. The same measure, in the same setting: the same measure for “GCCTCCAAATCAGGCAACGACTGGATCCGTATCGCGTAAGGATGCCACGACAACCTTGGGCGGCGGAAAAGGGGAAGA (double strand) [ctrA promoter probe]”: “binds”. Consider “GCGCTTGACTGAGATGCAACACCGTTGCATTTTCGCCACAATGCGTTGCTTGAACCTCGCATAAGCGTCGATTCGCCGGC (double strand) [ntrY promoter probe]”, for which the binding result (two complexes) is listed as “binds”.
